No constants are given. Whether binding was seen depends on the method and setting. Binding seen in cells or lysates may run through a third protein. Some binding calls cover weakened binding; strength is not graded here.
Columns and labels:
[1] = molecular target: PPIA (mouse, endogenous in haematopoietic stem cells) (mouse (endogenous in primary haematopoietic stem cells)) (UniProt P17742); assay: proximity ligation; Duolink PLA on fixed, permeabilised primary mouse HSCs; mouse anti-cyclophilin A with rabbit anti-PABPC1, anti-DDX6 or anti-NPM1; single-antibody staining as control
[2] = molecular target: PPIA G104A mutant (IP–western in HeLa cells, Fig. 4f) (UniProt P62937); assay: co-IP; IP–western in HeLa cells with PPIA wild type or G104A mutant; partners detected by western blot

Sequences of proteins named here, by UniProt entry; tags and fusion partners are left off. A change or cut given only in a name is not applied to a line headed by its entry. A line that says so, or that is headed by a name, gives the form on record, which may keep a tag or linker.
UniProt P17742: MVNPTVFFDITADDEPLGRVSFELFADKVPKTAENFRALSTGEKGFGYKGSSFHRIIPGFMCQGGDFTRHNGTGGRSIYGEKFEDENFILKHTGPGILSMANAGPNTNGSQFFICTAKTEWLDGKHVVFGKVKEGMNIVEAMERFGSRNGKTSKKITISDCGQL
PPIA G104A mutant (IP–western in HeLa cells, Fig. 4f) (P62937, form named): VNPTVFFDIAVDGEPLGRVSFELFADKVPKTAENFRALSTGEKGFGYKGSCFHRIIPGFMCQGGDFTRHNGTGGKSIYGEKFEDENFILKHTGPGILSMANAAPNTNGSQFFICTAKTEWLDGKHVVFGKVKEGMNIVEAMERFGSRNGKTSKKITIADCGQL
UniProt Q61937: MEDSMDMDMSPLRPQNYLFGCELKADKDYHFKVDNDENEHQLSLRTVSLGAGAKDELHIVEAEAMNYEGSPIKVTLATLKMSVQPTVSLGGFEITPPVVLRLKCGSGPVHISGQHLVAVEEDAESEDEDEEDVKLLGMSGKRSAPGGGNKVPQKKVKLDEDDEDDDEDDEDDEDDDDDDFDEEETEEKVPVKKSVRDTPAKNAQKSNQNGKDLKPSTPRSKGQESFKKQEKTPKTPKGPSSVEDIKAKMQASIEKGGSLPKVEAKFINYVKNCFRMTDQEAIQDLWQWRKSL
UniProt P29341: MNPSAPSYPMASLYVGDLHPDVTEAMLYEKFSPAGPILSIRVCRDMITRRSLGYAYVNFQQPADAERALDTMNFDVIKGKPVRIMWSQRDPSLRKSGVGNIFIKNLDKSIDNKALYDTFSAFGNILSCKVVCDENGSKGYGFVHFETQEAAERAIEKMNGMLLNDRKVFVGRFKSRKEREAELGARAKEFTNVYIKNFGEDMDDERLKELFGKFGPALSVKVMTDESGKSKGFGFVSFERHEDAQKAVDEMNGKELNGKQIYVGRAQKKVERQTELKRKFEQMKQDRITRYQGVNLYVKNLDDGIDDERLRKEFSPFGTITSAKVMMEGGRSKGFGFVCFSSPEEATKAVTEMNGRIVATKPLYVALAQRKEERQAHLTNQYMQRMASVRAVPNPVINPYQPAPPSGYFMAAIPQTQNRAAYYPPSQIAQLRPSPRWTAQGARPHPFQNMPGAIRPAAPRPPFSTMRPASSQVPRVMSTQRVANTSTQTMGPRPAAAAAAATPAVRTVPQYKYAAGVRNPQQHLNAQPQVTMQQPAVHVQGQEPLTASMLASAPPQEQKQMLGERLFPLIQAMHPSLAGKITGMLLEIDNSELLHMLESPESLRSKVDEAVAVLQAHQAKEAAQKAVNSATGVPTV
UniProt P06748: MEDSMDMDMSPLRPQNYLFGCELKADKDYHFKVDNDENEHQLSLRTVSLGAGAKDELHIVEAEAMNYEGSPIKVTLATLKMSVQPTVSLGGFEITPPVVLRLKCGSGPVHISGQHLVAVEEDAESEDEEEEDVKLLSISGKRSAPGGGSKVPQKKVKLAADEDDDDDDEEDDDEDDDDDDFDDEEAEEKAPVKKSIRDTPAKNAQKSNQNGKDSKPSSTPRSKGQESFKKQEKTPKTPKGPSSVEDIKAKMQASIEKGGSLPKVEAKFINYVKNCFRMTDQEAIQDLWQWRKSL
UniProt P11940: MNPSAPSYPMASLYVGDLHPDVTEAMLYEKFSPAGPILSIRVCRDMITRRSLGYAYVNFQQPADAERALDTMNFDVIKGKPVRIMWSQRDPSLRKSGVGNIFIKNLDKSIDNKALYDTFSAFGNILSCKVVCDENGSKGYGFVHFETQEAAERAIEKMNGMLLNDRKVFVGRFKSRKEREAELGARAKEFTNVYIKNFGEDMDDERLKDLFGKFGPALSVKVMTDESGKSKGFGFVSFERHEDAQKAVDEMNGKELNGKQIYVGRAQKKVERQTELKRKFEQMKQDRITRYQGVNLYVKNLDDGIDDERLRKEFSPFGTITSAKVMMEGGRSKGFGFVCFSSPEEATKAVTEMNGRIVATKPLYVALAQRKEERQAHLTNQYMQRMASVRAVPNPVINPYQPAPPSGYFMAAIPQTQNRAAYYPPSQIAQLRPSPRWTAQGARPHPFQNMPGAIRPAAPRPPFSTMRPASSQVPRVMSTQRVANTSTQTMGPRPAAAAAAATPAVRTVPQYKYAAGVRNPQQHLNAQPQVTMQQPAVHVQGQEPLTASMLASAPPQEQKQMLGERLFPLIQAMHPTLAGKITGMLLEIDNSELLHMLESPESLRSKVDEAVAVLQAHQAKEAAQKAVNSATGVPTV

Substance	binding [1]	binding [2]
NPM1 (mouse, endogenous in haematopoietic stem cells) (from UniProt Q61937 1-292)	binds	–
PABPC1 (mouse, endogenous in haematopoietic stem cells) (from UniProt P29341 1-636)	binds	–
nucleophosmin 1 (from UniProt P06748 1-294)	–	no binding
poly(A) binding protein cytoplasmic 1 (from UniProt P11940 1-636)	–	no binding
